Results as given in PubChem BioAssay AID1671190 (National Center for Advancing Translational Sciences (NCATS), 2021).
The whole screen tested about 580,000 compounds, of which about 6,100 (1.1%) were called active. The shares of active, inactive and inconclusive entries below differ from those in the screen. Calls come from the whole dose curve; as a rule, active = well fitted inhibition curve with a large enough effect; inconclusive = small, poorly fitted or top-dose-only effect, or another doubt; inactive = no such curve, though single readings can be large or run the other way. Potencies beside an inconclusive call are fits to weak or partial responses and may not hold up.

Amino acid sequences for entries named in this document (tags omitted). A change or cut given only in a name is not applied to a line headed by its entry.
UniProt P18054: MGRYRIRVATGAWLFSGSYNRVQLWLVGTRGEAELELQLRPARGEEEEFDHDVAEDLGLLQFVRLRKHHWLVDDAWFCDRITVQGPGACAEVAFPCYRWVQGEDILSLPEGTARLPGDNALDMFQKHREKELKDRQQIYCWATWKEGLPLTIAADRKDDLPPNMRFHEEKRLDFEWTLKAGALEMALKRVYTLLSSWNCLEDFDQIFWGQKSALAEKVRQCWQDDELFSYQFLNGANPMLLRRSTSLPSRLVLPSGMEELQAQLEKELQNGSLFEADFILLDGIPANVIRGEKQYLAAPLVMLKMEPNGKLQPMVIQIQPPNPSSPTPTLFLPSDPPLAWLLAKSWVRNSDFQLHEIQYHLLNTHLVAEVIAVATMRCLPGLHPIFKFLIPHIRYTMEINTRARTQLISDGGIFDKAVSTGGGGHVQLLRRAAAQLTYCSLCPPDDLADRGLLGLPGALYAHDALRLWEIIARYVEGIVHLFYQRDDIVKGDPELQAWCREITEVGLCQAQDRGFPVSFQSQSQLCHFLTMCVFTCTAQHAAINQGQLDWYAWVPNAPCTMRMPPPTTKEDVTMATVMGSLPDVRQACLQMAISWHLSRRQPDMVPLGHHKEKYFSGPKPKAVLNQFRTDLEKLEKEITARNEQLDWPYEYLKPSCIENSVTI

target: Polyunsaturated fatty acid lipoxygenase ALOX12 (Homo sapiens) (UniProt P18054); test: Primary qHTS assay for inhibitors of human arachidonate 12S-lipoxygenase (ALOX12): Round 2; conditions: purified 12hLO, xylenol orange hydroperoxide absorbance; series mostly up to 108 µM
How it was run: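 Purified human 12hLO (150 nM final) in 25 mM Hepes, 0.01% Triton X-100, pH 7.0 was preincubated 15 min at room temperature with compound. Then 40 uM arachidonic acid was added, 30 min. Hydroperoxide was read by Fe-XO absorbance ratio 573/405 nm.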
Potency is the fitted concentration of half-maximal effect.

Structure (SMILES) | Potency
O=[N+]([O-])c1ccc(N2CCN(c3ccccc3Cl)CC2)cn1 | inconclusive: 79.4 µM [inhibitor, single point]
COC(=O)C1=C(C)N(C)C(=NCc2ccccc2C(F)(F)F)NC1c1ccc(C(F)(F)F)cc1 (centres undefined) | inconclusive: 44.7 µM [inhibitor, partial curve, poor fit]
CCN1N=C(c2cc(Cl)sc2Cl)CSC1=O | inconclusive: 112 µM [inhibitor, single point]
CCOc1ccc(-c2cc(C(=O)NCCOC)c3ccccc3n2)cc1 | inconclusive: 100 µM [inhibitor, partial curve, poor fit]
CCc1ccc2oc(C(=O)Nc3ccc(S(=O)(=O)Nc4cc(C)nc(C)n4)cc3)cc(=O)c2c1 | active: 17.8 µM
NC(=O)c1cn(CC(=O)NCCc2ccccc2F)c2ccccc12 | inconclusive: 100 µM [inhibitor, partial curve, poor fit]
Cc1ccccc1-c1noc(N)c1C#N | inactive
CC(C)(C)c1ccc(C(=O)NCC(=O)OCCN2C(=O)c3ccccc3C2=O)cc1 | inconclusive: 89.1 µM [inhibitor, single point]
O=C(NNS(=O)(=O)c1ccccc1[N+](=O)[O-])c1ccncc1 | inactive
COc1ccc(-c2nc(NC(=O)C3CC(=O)N(Cc4ccco4)C3)sc2C)cc1 (centres undefined) | inconclusive: 44.7 µM [inhibitor, partial curve, poor fit]
O=C1C(Cl)=C(NCC2CCCO2)C(=O)N1Cc1ccccc1 (centres undefined) | inconclusive: 15.8 µM [inhibitor, partial curve, poor fit]
COc1cccc(NC(=O)c2nc3ccccc3nc2N2CCCC2)c1 | inconclusive: 89.1 µM [inhibitor, single point]
COC(=O)C1=C(C)NC(=O)CC1c1cc2c(cc1Br)OCO2 (centres undefined) | inconclusive: 100 µM [inhibitor, partial curve, poor fit]
CS(=O)c1ccccc1-c1nc(-c2cccc(Cl)c2)no1 (centres undefined) | inactive
O=C(COCc1cc(-c2ccc3c(c2)OCO3)on1)Nc1cc(Cl)ccc1Cl | inactive
CCOC(=O)C(CNC(=O)c1nccnc1N)Cc1ccccc1 (centres undefined) | inactive
CC1(C(=O)NS(=O)(=O)c2ccccc2C(F)(F)F)CCN1C(=O)CCc1cccs1 (centres undefined) | inconclusive: 44.7 µM [inhibitor, partial curve, poor fit]
CCCc1cc(=O)n2[nH]c(NC(=O)c3ccco3)nc2n1 | inconclusive: 5.62 µM [inhibitor, full curve, poor fit]
CCNc1nc(NCC)nc(N(n2cnnc2)S(=O)(=O)c2ccc(C)cc2)n1 | inconclusive: 70.8 µM [inhibitor, partial curve, poor fit]

Structural class, the entries above with a furan ring, fused or not
Structure (SMILES) | Potency
COc1ccc(-c2nc(NC(=O)C3CC(=O)N(Cc4ccco4)C3)sc2C)cc1 (centres undefined) | inconclusive: 44.7 µM [inhibitor, partial curve, poor fit]
CCCc1cc(=O)n2[nH]c(NC(=O)c3ccco3)nc2n1 | inconclusive: 5.62 µM [inhibitor, full curve, poor fit]
